Source: PubChem BioAssay AID540276 (National Center for Advancing Translational Sciences (NCATS), 2011)
Several values for one entry are separate records, joined by “and”; a condition that tells them apart may be missing. Equal entries are not always repeated. The whole screen tested about 300,000 compounds, of which about 5,400 (1.8%) were called active. The shares of active, inactive and inconclusive entries below differ from those in the screen. The call rests on the fitted dose curve; tested in HEK293 cells. Where the call is inconclusive, the potency comes from a doubtful curve fit.

Experiment: qHTS for inhibitors of binding or entry into cells for Marburg Virus
Conditions: Marburg virus pseudotyped entry inhibition, cell reporter; activity change, negative = inhibition: at 37.8 µM (top of the series) unless noted
On the % scale 0 is the no-effect control and ±100 the full control effect; potency means the concentration at half of the fitted maximal effect.

Structure (SMILES)	Potency	activity change, negative = inhibition
Cc1cc(S(=O)(=O)Cc2noc(-c3c(C)noc3C)n2)c(C)cc1Cl	inconclusive: 0.631 µM [inhibitor, full curve, poor fit]	–
Cc1ccc(NC(=O)COc2ccc(C3SCCS3)cc2)cc1	inconclusive: 5.62 µM [activator, full curve, poor fit]	–
CCc1ccc(NC(=O)Cn2cnc3sc(C)c(S(=O)(=O)N4CCC(C)CC4)c3c2=O)cc1	inconclusive: 14.1 µM [activator, partial curve, poor fit]	–
CNc1ccccc1C(=O)OCC(=O)c1ccccc1	inconclusive: 6.51 µM [activator, partial curve, poor fit]	–
N#Cc1c(N2C(=O)Nc3ccccc3N2O)sc2c1CCCCCC2	–	inactive: 4.51%
Cc1c(N=C/C=C2/N(C)c3ccccc3C2(C)C)c(=O)n(-c2ccccc2)n1C	inconclusive: 20 µM [inhibitor, single point] and inconclusive: 14.1 µM [inhibitor, partial curve, poor fit]	–
COc1ccc(NC(=O)CCc2nnc3ccc(N4CCC5(CC4)OCCO5)nn23)cc1	–	inactive: -7.04% [at 46.1 µM]
Cc1ccc(C)c(N2C(=O)c3cc(N4CCOCC4)c([N+](=O)[O-])cc3C2=O)c1	inconclusive: 3.55 µM [activator, single point]	–
O=C1c2cccnc2C(=O)N1c1cccc(-c2nc3ccccc3o2)c1	inconclusive: 0.631 µM [inhibitor, full curve, poor fit]	–
c1ccc(CSc2ncccn2)cc1	inconclusive: 20.6 µM [activator, partial curve, poor fit]	–
Cc1cccc(NC(=O)CSc2nc3[nH]c(=O)cc(O)c3s2)c1	inconclusive: 35.5 µM [activator, single point]	–
C=CCN1CCN(C(=O)c2cc3c(s2)CCCC3)CC1	inconclusive: 14.1 µM [activator, single point]	–
COc1ccccc1C1c2ccc3ccccc3c2Oc2ncn(CCN(C)C)c(=N)c21 (stereo unspecified)	active: 2.82 µM	–
COc1ccc(/C=C/C(=O)O/N=C(\N)c2ccccn2)cc1OC	inconclusive: 15.8 µM [inhibitor, single point]	–
Cc1ccc(/C=C2\OC(=O)c3ccccc32)cc1	–	inactive: -1.74%
COCCNC(=S)N1CCc2cc(OC)c(OC)cc2C1COc1cc(C)cc(C)c1 (stereo unspecified)	active: 7.94 µM	–
CCCOc1ccc(N2C(=O)CC(N(CCc3ccc(OC)c(OC)c3)C(=S)Nc3ccccc3)C2=O)cc1 (stereo unspecified)	inconclusive: 14.1 µM [inhibitor, partial curve, poor fit]	–
CS(=O)(=O)c1cnc2c(S(=O)(=O)c3ccccc3)cnn2c1N	–	inactive: 20.2% [at 46.1 µM]
CC1Sc2ccc(S(=O)(=O)N3CCC(C(=O)NCc4ccc(Cl)cc4)CC3)cc2NC1=O (stereo unspecified)	inconclusive: 35.5 µM [inhibitor, single point]	–
CN1CC(c2ccccc2)C2(SC(=S)N(Cc3ccco3)C2=O)C12C(=O)Nc1ccccc12 (stereo unspecified)	inconclusive: 16.4 µM [inhibitor, partial curve]	–
COc1ccc(-n2c(O)c(C=NCc3ccc4c(c3)OCO4)c(=O)[nH]c2=O)cc1	inconclusive: 0.316 µM [inhibitor, full curve, poor fit]	–
CCOC(=O)c1sc2nccc(N(C)C)c2c1N=CN(C)C	inconclusive: 1.26 µM [inhibitor, single point]	–

Structure (SMILES)	Potency	activity change, negative = inhibition
N#C/C(=C/c1ccc(OC(=O)c2ccc(Br)s2)cc1)c1nc2ccccc2[nH]1	inconclusive: 3.55 µM [activator, partial curve]	–
N#Cc1cc(Oc2cccc3cccnc23)c(-n2nnc3ccccc32)cc1C#N	inconclusive: 11.6 µM [inhibitor, partial curve, poor fit]	–
CCN(CC)C(=O)Oc1ccc2ccccc2c1Cl	inconclusive: 5.62 µM [inhibitor, full curve, poor fit]	–
Cc1ccc(N(CC(=O)NCc2ccccc2)C(=O)CCC(=O)Nc2nccs2)cc1	–	inactive: -23.4% [at 46.1 µM]
N#Cc1c2n(c(=S)n(-c3ccccn3)c1=O)CCCCC2	inconclusive: 2.59 µM [activator, single point]	–
COCCNC(=O)c1ccccc1NC(=O)c1cccc([N+](=O)[O-])c1C	inconclusive: 3.16 µM [inhibitor, single point]	–
Cc1ccc(N/N=C(\C#N)C(=N)N2CCCCCC2)cc1	inconclusive: 0.794 µM [activator, partial curve, poor fit]	–
CCn1c2ccccc2c2cc(C3C(C#N)=C(N)Oc4n[nH]c(COC)c43)ccc21 (stereo unspecified)	active: 5.17 µM	–
Cc1ccc(Cl)cc1N1CCN(C(=O)c2cn(C3CCCCC3)c(=O)c3c2c2ccccc2n3C)CC1	inconclusive: 35.5 µM [inhibitor, single point]	–
O=C(CCS(=O)(=O)c1ccccc1)Nc1ccc(N2CCOCC2)cc1	–	inactive: 1.71% [at 46.1 µM]
CCOc1ccc(-n2c(C)cc(C(=O)CCl)c2C)cc1	inconclusive: 20 µM [inhibitor, partial curve, poor fit]	–
CCCc1nc2ccccc2c(C(=O)OCC(=O)N2CCc3ccccc32)c1CC	inconclusive: 35.5 µM [inhibitor, single point]	–
Cc1nnc(N/N=C/c2cccc(OCc3ccc(Cl)c(Cl)c3)c2)n1N	inconclusive: 29.1 µM [inhibitor, single point]	–
O=C(NC(=S)Nc1cccc(O)c1)C1CCCCC1	–	inactive: 22.4%
COc1ccc(OC)c(C(=O)c2ccc(C(=O)c3cc(OC)ccc3OC)cc2)c1	–	inactive: -8.47%
Cc1cc(C(=O)N/N=C/c2cc(Br)ccc2OC(=O)c2ccccc2)n[nH]1	active: 10 µM	–
Nn1c(Cc2cccc3ccccc23)nnc1SCc1c(Cl)cccc1Cl	inconclusive: 35.5 µM [inhibitor, single point]	–
COC(=O)N1C2CC3(C)C=C(C)OC1(C)C3c1ccccc12 (stereo unspecified)	inconclusive: 1.19 µM [activator, single point]	–
CNC(=S)N(C1=NCC(c2ccc([N+](=O)[O-])cc2)S1)c1ccccc1 (stereo unspecified)	–	inactive: -24.1% [at 46.1 µM]
COc1ccc(/C=N/n2c(-c3cccs3)n[nH]c2=S)cc1	inconclusive: 20 µM [activator, partial curve, poor fit]	–
CCn1c(=O)c(C(=O)NNS(=O)(=O)c2ccc(Br)cc2)c(O)c2ccccc21	inconclusive: 35.5 µM [inhibitor, single point]	–
CC(=O)Nc1ccc(NC(=O)C(C)OC(=O)CNS(=O)(=O)/C=C/c2ccc(C)cc2)cc1 (stereo unspecified)	–	inactive: -1.52%

Structure (SMILES)	Potency	activity change, negative = inhibition
CCc1nc2ccccc2c(C(=O)OC2CCCCC2=O)c1C (stereo unspecified)	inconclusive: 35.5 µM [inhibitor, single point]	–
CCc1cc(C(=O)Nc2c(C)nn(Cc3ccc(C)cc3)c2C)no1	–	inactive: -15.4% [at 46.1 µM]
Cc1[nH]c2ccccc2c1C(c1ccncc1)N1CCN(c2ccccn2)CC1 (stereo unspecified)	–	inactive: 20.3% [at 46.1 µM]
COc1ccc(C2CC(C)=C(C#N)S(=O)(=O)C2C#N)cc1 (stereo unspecified)	inconclusive: 5.62 µM [activator, single point]	–
CCN(CC)C(=O)c1cc2c(=O)n3cccc(C)c3nc2s1	inconclusive: 1.26 µM [activator, single point]	–
CC(C)OCCCNC(=O)c1ccc(NC(=O)C2CCCO2)cc1 (stereo unspecified)	inconclusive: 1.26 µM [inhibitor, single point]	–
Cc1cc(SCC(=O)N/N=C/c2ccco2)nc2ccccc12	inconclusive: 11.2 µM [inhibitor, partial curve, poor fit]	–
CC(=O)NC1C(=O)N(CCc2ccccc2)c2ccc(Br)cc21 (stereo unspecified)	inconclusive: 35.5 µM [inhibitor, single point]	–
Cc1ccc2cc(CN(Cc3ccco3)C(=S)NCC3CCCO3)c(=O)[nH]c2c1 (stereo unspecified)	inconclusive: 2.82 µM [inhibitor, full curve]	–
CCc1nnc(NC(=O)CN2CCN(Cc3cccc(Cl)c3)CC2)s1	inconclusive: 2.82 µM [inhibitor, single point]	–
COCCOC1CCN(C(=O)C2CCC(=O)N(Cc3cccc(F)c3)C2)CC1 (stereo unspecified)	–	inactive: 9.65% [at 46.1 µM]
CN(c1cccc(NC(=O)CN(c2ccc(C34CC5CC(CC(C5)C3)C4)cc2)S(C)(=O)=O)c1)S(C)(=O)=O	active: 18.3 µM	–
Fc1cccc(-n2ncc(-c3nnnn3-c3ccccc3)c2C(F)(F)F)c1	–	inactive: -2%
O=[N+]([O-])c1ccccc1OCCCn1cnc2ccccc21	inconclusive: 6.31 µM [activator, single point]	–
COc1ccc(N=C2S/C(=C\c3ccc(OC(C)C(=O)O)c(OC)c3)C(=O)N2CCc2c[nH]c3ccccc23)cc1 (stereo unspecified)	inconclusive: 35.5 µM [inhibitor, partial curve, poor fit]	–
COCCN(C(=O)Cc1cccs1)C(C(=O)NCc1ccc(OC)cc1)c1ccccc1 (stereo unspecified)	inconclusive: 25.9 µM [inhibitor, partial curve, poor fit]	–
S=C(NCc1ccccc1)NC1CCSc2ccccc21 (stereo unspecified)	inconclusive: 7.08 µM [inhibitor, partial curve, poor fit]	–
CC(C(=O)O)c1n[nH]c(=O)c2ccccc12 (stereo unspecified)	–	inactive: 1.07%
Cc1nc2c(S(=O)(=O)c3ccccc3)cnn2c(C)c1C	inconclusive: 0.631 µM [activator, full curve, poor fit]	–
COc1cc(SC)ccc1C(=O)N1CCN(Cc2ccccc2)CC1	–	inactive: -20.3%
COc1ccc(Oc2nc3c(c(=O)n(C)c(=O)n3C)n2Cc2cccc(OC)c2)cc1	–	inactive: -3.51%
CN(C)c1ccc(/C=C/c2ccc3c4ccccc4ccc3[n+]2-c2ccccc2)cc1	inconclusive: 15.8 µM [inhibitor, partial curve, poor fit]	–

Ordered by heavy-atom count (low to high): some entries from above
Structure (SMILES)	Potency	activity change, negative = inhibition
S=C(NCc1ccccc1)NC1CCSc2ccccc21 (stereo unspecified)	inconclusive: 7.08 µM [inhibitor, partial curve, poor fit]	–
O=[N+]([O-])c1ccccc1OCCCn1cnc2ccccc21	inconclusive: 6.31 µM [activator, single point]	–
CC(C)OCCCNC(=O)c1ccc(NC(=O)C2CCCO2)cc1 (stereo unspecified)	inconclusive: 1.26 µM [inhibitor, single point]	–
COc1cc(SC)ccc1C(=O)N1CCN(Cc2ccccc2)CC1	–	inactive: -20.3%
COCCN(C(=O)Cc1cccs1)C(C(=O)NCc1ccc(OC)cc1)c1ccccc1 (stereo unspecified)	inconclusive: 25.9 µM [inhibitor, partial curve, poor fit]	–
